Binding signal data for 54 sequences are collected here from publication PMC7819943, “Rice protein-binding microarrays: a tool to detect cis-acting elements near promoter regions in rice”.

Amino acid sequences for entries named in this document (tags omitted).
UniProt Q0JBA9, entry or part of it: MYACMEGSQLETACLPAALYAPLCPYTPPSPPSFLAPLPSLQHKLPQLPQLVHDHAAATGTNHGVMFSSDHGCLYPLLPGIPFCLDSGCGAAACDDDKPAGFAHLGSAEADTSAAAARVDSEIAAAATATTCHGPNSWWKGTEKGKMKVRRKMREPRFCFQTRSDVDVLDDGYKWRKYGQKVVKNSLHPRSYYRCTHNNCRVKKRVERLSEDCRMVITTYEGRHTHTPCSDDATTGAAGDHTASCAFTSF

Some of the results follow.

The target in this assay is OsWRKY34 (Oryza sativa, UniProt Q0JBA9 1-250). The assay can be described thus: protein-binding microarray (RPBM); PBS, 2% BSA, 51.3 ng/ul salmon testes DNA, 50 uM zinc acetate, 200 nM TF, 25 C, 1 h; high values mean tight binding. The settings on record: protein: recombinant; tags: N-terminal polyhistidine and DsRed monomer fusion (pET32a); label: CyDye5-dUTP incorporated in the synthesized complementary strand; 3' TTTTT single-stranded linker to array surface; dsDNA, one strand shown. An outline of the steps:
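In PBS with 2% BSA, salmon testes DNA and 50 µM zinc acetate, 200 nM protein was incubated on a custom Agilent array at 25 °C for 1 h and then washed off. The array had been made double-stranded by primer extension with Cy5-dUTP and blocked with 2% BSA. The proteins were transcription factors fused N-terminally to polyhistidine and DsRed, expressed in E. coli BL21-CodonPlus and purified on Ni–NTA. The binding signal is per-feature fluorescence intensity (arbitrary units) from an Axon 4000B scanner.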
As for “CCGGTCCATCCATCCTGTATACTATGTTTAACTGATCTTGCGGAGTCACCTAGTGCAG”, the binding signal is 10500 fluorescence intensity (a.u.).
The figure for “GCTTTATATATCCATGCATGCACCTCCCTATCCTTCACACCGGAGTCACCTAGTGCAG” is 8780 fluorescence intensity (a.u.); for “TCGATTGGGGATTGGGGATTGGGGATCAGGAGGGATGGGGCGGAGTCACCTAGTGCAG” it is 20900 fluorescence intensity (a.u.); for “TAGTTGCCAGCTCAACTGCTCTGTTGACCTGAAATGCTGCCGGAGTCACCTAGTGCAG” it is 8480 fluorescence intensity (a.u.).
As for “ATTGTCGACCCATCCTTTGATTCTCGATCCAAATATTCAACGGAGTCACCTAGTGCAG”, the binding signal was 8270 fluorescence intensity (a.u.).
“TCTTTTTCCCTTTCGCATCTGTTTTTATCTCTTATTATCTCGGAGTCACCTAGTGCAG”: the binding signal was 9440 fluorescence intensity (a.u.).
Regarding “ATTGCTACTGAATCTGAAGCACCACCACTCCATCTCCATTCGGAGTCACCTAGTGCAG”, the binding signal is 8860 fluorescence intensity (a.u.).
As for “TTATCCCCGTTCTATCATTTTCTTTCATTTCATATAGTATCGGAGTCACCTAGTGCAG”, the figure is 12800 fluorescence intensity (a.u.); as for “TTGTTCTTTTGTCTTTTACCTGTGTCTATTAGATTTTAATCGGAGTCACCTAGTGCAG”, 13600 fluorescence intensity (a.u.).
As for “CCCTACTTCTCTTCTTTCATAAAGTCATACCACCTTACTTCGGAGTCACCTAGTGCAG”, the figure is 9330 fluorescence intensity (a.u.).
As for “TCTCGTCCAGAAAGGCAATGGAATATACTCTACTGCTCGTCGGAGTCACCTAGTGCAG”, the figure is 8620 fluorescence intensity (a.u.); as for “CGTAAACATCTGATGAGTACCTCACATGTTGAACATCTCCCGGAGTCACCTAGTGCAG”, 8260 fluorescence intensity (a.u.); as for “GACCTTTGGGTAGGGGTGGGGATGGGGCGAAATTACTAAACGGAGTCACCTAGTGCAG”, 30300 fluorescence intensity (a.u.).
For the sequence “ACCATCATCAGTATAAATCCGCCATCTCCTTTCTCGCGCCCGGAGTCACCTAGTGCAG”, the binding signal is 9020 fluorescence intensity (a.u.).
As for “TCCAACTTTTCCATCACATCAAAACTTTCCTACATACATACGGAGTCACCTAGTGCAG”, the figure is 8430 fluorescence intensity (a.u.).
As for “GCGCCGATCGATCGATGCAGCACTGGTATCATCTTCTTGTCGGAGTCACCTAGTGCAG”, the figure is 8530 fluorescence intensity (a.u.); as for “ACAGCCAAACATACCCGTAATTTATAGTTCCAATATTTTCCGGAGTCACCTAGTGCAG”, 8560 fluorescence intensity (a.u.).
As for “TTCCCTGTAACTCTCCCCATTCCTTCCCTTGGCGTAAAATCGGAGTCACCTAGTGCAG”, the figure is 9300 fluorescence intensity (a.u.).
Consider “TTCAGTTTTTCTGCTTTTTTTCTTGTGTTTGATCTGAATACGGAGTCACCTAGTGCAG”, for which the binding signal is 9340 fluorescence intensity (a.u.).
The figure for “CAAAATATTAACCATCCTGATTTTTCTGTTATTCATTCCTCGGAGTCACCTAGTGCAG” is 9510 fluorescence intensity (a.u.); for “CTATTGGGATCCACCTATCAGCTGCTATCTCCTTTCTTCACGGAGTCACCTAGTGCAG” it is 10500 fluorescence intensity (a.u.); for “ATTCATGTCACCCACTTCTCCCTTGTCTTCTCACCACCCACGGAGTCACCTAGTGCAG” it is 9160 fluorescence intensity (a.u.).
The figure for “TCCGTCCTCGTCACCGCCGCCACCGCCGCCCCACCGCCAGCGGAGTCACCTAGTGCAG” is 8680 fluorescence intensity (a.u.); for “TCGTTTGTAGCTAGTTGCTGTGTGTTCTTGCTTCCGGTTTCGGAGTCACCTAGTGCAG” it is 9120 fluorescence intensity (a.u.); for “GGGAATAACAATGGGAACGTCACCCCTTCCTGTACGGTTTCGGAGTCACCTAGTGCAG” it is 9050 fluorescence intensity (a.u.).
As for “CACCGTTAACTTTTTATTACGTATTTGACCATTTGTCTTACGGAGTCACCTAGTGCAG”, the figure is 10200 fluorescence intensity (a.u.).
For “TATTTTCTTTTCTGTTGGTAGTACATTCTTTTCCTTTTTCCGGAGTCACCTAGTGCAG”, the binding signal was 11200 fluorescence intensity (a.u.).
As for “CGTGTTGCTGCCTGTGGGCTACCCGGTCTATACATGCAAACGGAGTCACCTAGTGCAG”, the figure is 9500 fluorescence intensity (a.u.); as for “CTGCAATATTGTTTATTCATCTTGTTTTCTCCTTTTTTTACGGAGTCACCTAGTGCAG”, 13500 fluorescence intensity (a.u.).
The figure for “TTTTGGGGATAGATTTGCGCTTTTGGTGGGTGGGTTTGGGCGGAGTCACCTAGTGCAG” is 14200 fluorescence intensity (a.u.); for “AATTTGTGTGTAATTTTTTAGGATTTGTGATGTATTTGATCGGAGTCACCTAGTGCAG” it is 9210 fluorescence intensity (a.u.); for “ACACTCGCACACCCACCACACGCCGTCTCTCTCAAAACAACGGAGTCACCTAGTGCAG” it is 11500 fluorescence intensity (a.u.).
As for “CTTTGGCTGGTTCTACTATTTACTACACCATCTGTTTTAACGGAGTCACCTAGTGCAG”, the figure is 10800 fluorescence intensity (a.u.); as for “TTACTACCAATCTGCTGGAGTGGCTCAGTTGCTCATGAGACGGAGTCACCTAGTGCAG”, 8330 fluorescence intensity (a.u.).
Turning to “GGGGAGGGAGATCTCCTCTCTTCTCTTGTTCTGTTTCTTGCGGAGTCACCTAGTGCAG”, the binding signal is 12000 fluorescence intensity (a.u.).
The figure for “TTTCATACACATACGTATTACATATTGCATATACCTATTTCGGAGTCACCTAGTGCAG” is 8610 fluorescence intensity (a.u.); for “TTAAAGTTGACCAAATTTATAGAAAAATTTAGCAACATCTCGGAGTCACCTAGTGCAG” it is 8820 fluorescence intensity (a.u.); for “ACTCGATGCGGCCCCACCTGCCGGCCACACTCACCTGCTCCGGAGTCACCTAGTGCAG” it is 8340 fluorescence intensity (a.u.).
The figure for “AGCTACCTCACACGACAGTATTGGTTTTCCGGCCGTTTTCCGGAGTCACCTAGTGCAG” is 12400 fluorescence intensity (a.u.).
As to “CTTTTGGTTATAGCATCATTTTACATTGCAGCTAAAGTTCCGGAGTCACCTAGTGCAG”, the binding signal is 9160 fluorescence intensity (a.u.).
“ACCCACTGATCACGAAATCCACACACTGGCCACATCCAAACGGAGTCACCTAGTGCAG”: the binding signal is 8340 fluorescence intensity (a.u.).
Consider “CTCTCTCTCTCTGTCTCTCTTCTTCTCGTTTGCATCTTCTCGGAGTCACCTAGTGCAG”, for which the binding signal is 10900 fluorescence intensity (a.u.).
As for “CCAACCGCTTTCCTTTTGTCCACCGATTGCTCTCTCTTTGCGGAGTCACCTAGTGCAG”, the binding signal is 9210 fluorescence intensity (a.u.).
As for “CCGCCGGCCATCTCGCTCTTGCACGCGCTCGCCGGTAGACCGGAGTCACCTAGTGCAG”, the figure is 8140 fluorescence intensity (a.u.).
The figure for “ACACATCTTCTTCTTCCTGAGCTTAGCATAGTTAGCTTGCCGGAGTCACCTAGTGCAG” is 8500 fluorescence intensity (a.u.).
For “GGAGAAGCTGCAGCCGCTATTACATCCCTTGCCATCTCCACGGAGTCACCTAGTGCAG”, the binding signal is 9300 fluorescence intensity (a.u.).
With “TGTGGTTAAAGTGAGATGATCGTAAGTATTATTGCGACTACGGAGTCACCTAGTGCAG”, the binding signal is 8330 fluorescence intensity (a.u.).
Turning to “CCAGTTCTTGAGTTTGCTTCTGTGAGCTTTCGTCATATTACGGAGTCACCTAGTGCAG”, the binding signal is 8590 fluorescence intensity (a.u.).
As for “GGCTGGTATTATGATCTTGTTGCTATTTCTTGATCAATTTCGGAGTCACCTAGTGCAG”, the figure is 10600 fluorescence intensity (a.u.); as for “AGTAACTTTGAATTCCGCTAATGTTTTGGGTTTTGGGTACCGGAGTCACCTAGTGCAG”, 9420 fluorescence intensity (a.u.).
The figure for “CTTGAGTTTTGGCCGTCTATCACCCGTACGTCGCACGAAGCGGAGTCACCTAGTGCAG” is 8810 fluorescence intensity (a.u.); for “CTCCTACAGTCGTCGTCCTCCGGCCACCGCCGTCCTCTGCCGGAGTCACCTAGTGCAG” it is 9010 fluorescence intensity (a.u.).
As for “GTGGTGGAAGGTACGATTTGGAGAGACTTTGAGATGGCGTCGGAGTCACCTAGTGCAG”, the figure is 8890 fluorescence intensity (a.u.).
On to “TTGTTTCTTCTCTGCTTCGGCTGGGGACTGACTATAAATGCGGAGTCACCTAGTGCAG”, for which the binding signal was 8410 fluorescence intensity (a.u.).
